Test results published in the supplement of paper PMC12823440, “Inhibitors supercharge kinase turnover through native proteolytic circuits” (Nature, 2025).
The other results are listed elsewhere or left out. The calls rarely recur for the same compound in another form.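 In K562 cells expressing nanoluciferase-fused kinases, luminescence was recorded at 4 h intervals between 2 and 18 h, normalized as percent of control with DMSO at 100% and a positive control at 0%. A significant (2 sigma) signal drop marks a time point as decreased. The authors' rule for a hit is not shown and takes in more than the number of time points.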

By UniProt entry, the sequences of proteins in these tests, tags left out. Where a name states a change or a piece, a line headed by the entry shows the natural chain unless it says otherwise.
UniProt P00519, whole entry: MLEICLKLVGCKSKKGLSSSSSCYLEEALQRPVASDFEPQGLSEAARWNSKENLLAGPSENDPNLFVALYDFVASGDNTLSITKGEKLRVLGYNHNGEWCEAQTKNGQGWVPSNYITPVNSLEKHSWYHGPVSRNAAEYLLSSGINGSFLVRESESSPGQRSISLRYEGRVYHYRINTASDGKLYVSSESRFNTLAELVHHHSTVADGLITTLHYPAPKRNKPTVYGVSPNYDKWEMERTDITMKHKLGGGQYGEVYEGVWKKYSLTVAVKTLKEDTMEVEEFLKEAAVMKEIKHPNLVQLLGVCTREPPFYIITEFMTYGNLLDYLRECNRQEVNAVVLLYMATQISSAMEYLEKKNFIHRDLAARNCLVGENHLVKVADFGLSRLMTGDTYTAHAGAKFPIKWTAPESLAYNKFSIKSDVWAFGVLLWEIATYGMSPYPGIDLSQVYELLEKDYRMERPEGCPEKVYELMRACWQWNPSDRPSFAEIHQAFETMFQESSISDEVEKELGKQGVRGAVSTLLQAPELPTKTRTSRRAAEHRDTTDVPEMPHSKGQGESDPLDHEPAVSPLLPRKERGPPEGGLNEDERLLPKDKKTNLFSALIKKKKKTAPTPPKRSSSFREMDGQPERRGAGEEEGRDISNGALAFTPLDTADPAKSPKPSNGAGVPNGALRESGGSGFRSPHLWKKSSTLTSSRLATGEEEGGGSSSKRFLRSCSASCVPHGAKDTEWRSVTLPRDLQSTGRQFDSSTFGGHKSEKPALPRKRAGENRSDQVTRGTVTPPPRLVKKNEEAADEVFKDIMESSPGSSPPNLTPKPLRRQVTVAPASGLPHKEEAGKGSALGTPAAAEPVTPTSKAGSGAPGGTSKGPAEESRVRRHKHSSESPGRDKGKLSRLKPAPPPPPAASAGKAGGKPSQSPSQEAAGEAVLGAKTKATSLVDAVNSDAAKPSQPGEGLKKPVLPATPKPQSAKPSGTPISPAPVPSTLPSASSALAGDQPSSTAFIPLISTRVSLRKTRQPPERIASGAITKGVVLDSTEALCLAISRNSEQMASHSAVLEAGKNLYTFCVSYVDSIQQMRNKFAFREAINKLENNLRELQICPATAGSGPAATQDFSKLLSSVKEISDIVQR
UniProt P31749: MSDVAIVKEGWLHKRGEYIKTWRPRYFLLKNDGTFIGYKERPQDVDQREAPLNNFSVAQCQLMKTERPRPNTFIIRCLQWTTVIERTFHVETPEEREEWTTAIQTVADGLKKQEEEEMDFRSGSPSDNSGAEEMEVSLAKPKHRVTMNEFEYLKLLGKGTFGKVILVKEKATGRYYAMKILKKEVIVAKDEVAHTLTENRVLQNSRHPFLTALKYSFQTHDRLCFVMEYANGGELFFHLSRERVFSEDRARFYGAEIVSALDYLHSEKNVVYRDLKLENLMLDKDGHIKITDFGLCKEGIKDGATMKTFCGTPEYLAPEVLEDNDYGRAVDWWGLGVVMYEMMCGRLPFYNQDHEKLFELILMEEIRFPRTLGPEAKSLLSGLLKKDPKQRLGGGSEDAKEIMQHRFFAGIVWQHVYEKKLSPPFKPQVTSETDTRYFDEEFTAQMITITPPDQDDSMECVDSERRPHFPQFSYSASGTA
UniProt Q9UM73: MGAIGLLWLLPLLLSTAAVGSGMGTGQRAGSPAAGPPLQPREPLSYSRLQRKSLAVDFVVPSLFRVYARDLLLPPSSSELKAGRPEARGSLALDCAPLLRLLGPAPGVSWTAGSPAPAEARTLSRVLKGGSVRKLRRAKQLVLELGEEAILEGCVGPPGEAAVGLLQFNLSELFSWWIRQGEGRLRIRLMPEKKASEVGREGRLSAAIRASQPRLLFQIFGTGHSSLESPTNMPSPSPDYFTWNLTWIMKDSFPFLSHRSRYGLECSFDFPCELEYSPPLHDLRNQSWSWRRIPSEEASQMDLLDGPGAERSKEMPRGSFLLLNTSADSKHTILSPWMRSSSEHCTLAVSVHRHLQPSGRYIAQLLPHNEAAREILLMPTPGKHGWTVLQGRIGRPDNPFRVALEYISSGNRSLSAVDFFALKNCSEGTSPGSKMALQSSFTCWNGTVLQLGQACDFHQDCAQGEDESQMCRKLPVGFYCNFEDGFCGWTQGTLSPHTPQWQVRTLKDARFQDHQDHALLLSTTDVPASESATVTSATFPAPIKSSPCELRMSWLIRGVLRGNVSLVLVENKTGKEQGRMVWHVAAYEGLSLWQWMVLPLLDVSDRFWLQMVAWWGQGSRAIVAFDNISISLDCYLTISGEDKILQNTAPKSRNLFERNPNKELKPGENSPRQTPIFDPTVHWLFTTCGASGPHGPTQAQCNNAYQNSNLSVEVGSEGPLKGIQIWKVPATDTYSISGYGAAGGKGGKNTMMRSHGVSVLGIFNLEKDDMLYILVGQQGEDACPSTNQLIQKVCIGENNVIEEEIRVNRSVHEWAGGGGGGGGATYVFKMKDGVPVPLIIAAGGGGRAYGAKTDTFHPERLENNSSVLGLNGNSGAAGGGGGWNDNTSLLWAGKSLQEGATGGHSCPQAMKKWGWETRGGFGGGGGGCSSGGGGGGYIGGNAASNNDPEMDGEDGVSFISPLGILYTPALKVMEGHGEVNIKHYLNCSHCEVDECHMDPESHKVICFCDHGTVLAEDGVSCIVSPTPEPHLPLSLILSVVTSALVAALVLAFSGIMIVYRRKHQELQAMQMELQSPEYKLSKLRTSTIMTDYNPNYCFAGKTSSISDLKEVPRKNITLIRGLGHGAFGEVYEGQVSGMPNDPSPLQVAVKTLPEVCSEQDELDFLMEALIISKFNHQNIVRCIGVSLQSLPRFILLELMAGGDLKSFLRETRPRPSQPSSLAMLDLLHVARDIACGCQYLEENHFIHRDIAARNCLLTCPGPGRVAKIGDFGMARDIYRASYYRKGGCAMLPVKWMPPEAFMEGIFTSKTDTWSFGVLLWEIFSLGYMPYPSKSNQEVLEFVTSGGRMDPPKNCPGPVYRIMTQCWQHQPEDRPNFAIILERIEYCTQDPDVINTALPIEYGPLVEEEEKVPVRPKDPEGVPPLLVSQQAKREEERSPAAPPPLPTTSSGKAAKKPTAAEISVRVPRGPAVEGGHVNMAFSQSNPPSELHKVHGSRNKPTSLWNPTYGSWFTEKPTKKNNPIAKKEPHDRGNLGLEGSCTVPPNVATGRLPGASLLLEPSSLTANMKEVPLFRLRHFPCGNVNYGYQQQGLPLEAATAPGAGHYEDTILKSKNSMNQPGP
UniProt P10398: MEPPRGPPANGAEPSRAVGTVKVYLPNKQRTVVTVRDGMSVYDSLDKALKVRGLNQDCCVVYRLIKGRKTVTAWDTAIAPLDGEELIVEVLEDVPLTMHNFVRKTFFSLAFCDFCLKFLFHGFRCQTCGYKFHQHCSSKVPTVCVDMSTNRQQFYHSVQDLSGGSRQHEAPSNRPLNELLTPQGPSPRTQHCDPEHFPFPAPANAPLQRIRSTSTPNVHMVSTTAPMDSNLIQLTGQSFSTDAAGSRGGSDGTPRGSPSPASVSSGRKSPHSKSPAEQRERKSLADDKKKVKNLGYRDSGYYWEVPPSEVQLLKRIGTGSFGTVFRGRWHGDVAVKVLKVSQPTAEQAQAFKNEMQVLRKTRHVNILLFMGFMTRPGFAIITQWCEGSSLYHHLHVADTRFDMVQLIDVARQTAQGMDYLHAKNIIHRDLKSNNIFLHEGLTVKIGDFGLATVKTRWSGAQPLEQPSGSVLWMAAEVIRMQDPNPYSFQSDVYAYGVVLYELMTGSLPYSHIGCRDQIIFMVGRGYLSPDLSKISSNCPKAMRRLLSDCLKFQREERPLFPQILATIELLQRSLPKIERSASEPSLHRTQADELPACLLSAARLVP
UniProt Q96GD4, whole entry: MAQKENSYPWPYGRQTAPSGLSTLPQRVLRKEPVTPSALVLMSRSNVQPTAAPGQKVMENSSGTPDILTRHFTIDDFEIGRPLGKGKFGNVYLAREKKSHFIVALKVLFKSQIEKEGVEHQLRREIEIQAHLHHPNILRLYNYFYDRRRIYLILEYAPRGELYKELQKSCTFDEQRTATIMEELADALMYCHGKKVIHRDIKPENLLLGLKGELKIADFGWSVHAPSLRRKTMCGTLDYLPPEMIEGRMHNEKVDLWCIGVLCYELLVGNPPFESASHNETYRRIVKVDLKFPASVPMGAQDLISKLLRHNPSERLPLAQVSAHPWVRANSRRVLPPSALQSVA
UniProt Q9UQB9: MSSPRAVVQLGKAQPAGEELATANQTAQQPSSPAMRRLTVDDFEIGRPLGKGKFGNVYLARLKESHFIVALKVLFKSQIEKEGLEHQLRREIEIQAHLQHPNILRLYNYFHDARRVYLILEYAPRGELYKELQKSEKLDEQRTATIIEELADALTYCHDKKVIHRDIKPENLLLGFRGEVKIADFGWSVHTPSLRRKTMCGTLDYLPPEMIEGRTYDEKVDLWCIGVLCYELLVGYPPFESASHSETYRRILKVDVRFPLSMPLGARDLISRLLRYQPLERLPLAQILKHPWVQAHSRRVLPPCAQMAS
UniProt P51451: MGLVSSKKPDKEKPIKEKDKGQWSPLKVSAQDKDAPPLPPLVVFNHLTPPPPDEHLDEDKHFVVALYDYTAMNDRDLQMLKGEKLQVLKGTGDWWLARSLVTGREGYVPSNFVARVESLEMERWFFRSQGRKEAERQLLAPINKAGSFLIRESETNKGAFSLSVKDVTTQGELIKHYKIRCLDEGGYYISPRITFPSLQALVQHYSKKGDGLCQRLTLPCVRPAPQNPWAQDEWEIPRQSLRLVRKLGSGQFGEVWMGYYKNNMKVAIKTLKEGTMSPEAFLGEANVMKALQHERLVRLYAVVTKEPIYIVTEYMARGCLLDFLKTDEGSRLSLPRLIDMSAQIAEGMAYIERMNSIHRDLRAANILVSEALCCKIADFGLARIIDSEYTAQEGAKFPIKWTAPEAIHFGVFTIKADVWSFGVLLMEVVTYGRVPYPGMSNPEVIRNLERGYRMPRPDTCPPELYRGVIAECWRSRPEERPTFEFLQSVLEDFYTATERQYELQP
UniProt P51813: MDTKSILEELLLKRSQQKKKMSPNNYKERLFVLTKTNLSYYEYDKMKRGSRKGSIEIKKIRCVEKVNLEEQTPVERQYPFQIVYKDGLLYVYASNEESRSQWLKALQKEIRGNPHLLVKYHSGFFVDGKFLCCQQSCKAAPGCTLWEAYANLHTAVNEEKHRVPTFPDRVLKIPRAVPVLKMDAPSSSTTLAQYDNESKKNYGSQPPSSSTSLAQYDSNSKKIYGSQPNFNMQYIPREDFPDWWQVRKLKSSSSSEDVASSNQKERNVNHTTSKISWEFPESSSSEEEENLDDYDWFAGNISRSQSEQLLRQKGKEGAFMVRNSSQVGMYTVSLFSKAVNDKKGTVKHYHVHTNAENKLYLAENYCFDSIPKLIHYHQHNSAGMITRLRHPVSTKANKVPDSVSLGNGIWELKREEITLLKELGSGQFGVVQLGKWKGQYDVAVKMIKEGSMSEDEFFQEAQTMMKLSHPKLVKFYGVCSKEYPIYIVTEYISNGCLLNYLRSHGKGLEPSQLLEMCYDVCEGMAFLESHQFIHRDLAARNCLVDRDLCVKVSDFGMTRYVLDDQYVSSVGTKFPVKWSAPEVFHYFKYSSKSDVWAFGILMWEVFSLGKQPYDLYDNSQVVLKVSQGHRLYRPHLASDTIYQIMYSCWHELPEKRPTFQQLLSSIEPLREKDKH
UniProt P15056, whole entry, looked up: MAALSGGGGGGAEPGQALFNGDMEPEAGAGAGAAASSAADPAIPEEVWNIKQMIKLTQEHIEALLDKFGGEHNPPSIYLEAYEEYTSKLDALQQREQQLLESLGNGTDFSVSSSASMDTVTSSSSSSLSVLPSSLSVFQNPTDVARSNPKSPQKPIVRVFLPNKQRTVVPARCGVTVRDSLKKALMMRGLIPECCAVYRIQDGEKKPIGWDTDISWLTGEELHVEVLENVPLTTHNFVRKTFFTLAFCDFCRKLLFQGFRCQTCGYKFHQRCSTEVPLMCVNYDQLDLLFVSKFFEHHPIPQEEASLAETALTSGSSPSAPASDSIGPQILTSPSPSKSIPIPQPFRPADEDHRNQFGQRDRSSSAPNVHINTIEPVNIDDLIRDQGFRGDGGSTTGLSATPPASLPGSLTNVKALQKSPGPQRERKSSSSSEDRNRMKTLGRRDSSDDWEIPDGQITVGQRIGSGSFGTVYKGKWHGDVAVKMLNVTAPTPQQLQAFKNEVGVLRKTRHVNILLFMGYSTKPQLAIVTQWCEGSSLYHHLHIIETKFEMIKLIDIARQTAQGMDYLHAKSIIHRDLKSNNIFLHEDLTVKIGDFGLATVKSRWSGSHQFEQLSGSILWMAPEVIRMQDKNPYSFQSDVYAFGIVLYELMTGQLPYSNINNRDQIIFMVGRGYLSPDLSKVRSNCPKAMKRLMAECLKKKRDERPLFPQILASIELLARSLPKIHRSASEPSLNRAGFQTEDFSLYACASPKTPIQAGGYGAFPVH

Legend:
Test in all cases: kinase-Nluc reporter destabilization hit call (1 = scored as downregulated) (binary); higher = compound decreases kinase abundance
Conditions in all cases: K562; 2-18 h
[1] = biological target: ABL1 (UniProt P00519)
[2] = biological target: AKT1 (UniProt P31749)
[3] = biological target: ALK (UniProt Q9UM73)
[4] = biological target: ARAF (UniProt P10398)
[5] = biological target: AURKA (UniProt O14965)
[6] = biological target: AURKB (UniProt Q96GD4)
[7] = biological target: AURKC (UniProt Q9UQB9)
[8] = biological target: BLK (UniProt P51451)
[9] = biological target: BMX (UniProt P51813)
[10] = biological target: BRAF (UniProt P15056)

Measured: kinase-Nluc reporter destabilization hit call

CC(=O)c1cc(O)ccc1O [2,5-Dihydroxyacetophenone] (10 µM)
inactive: [1] 0 | [2] 0 | [3] 0 | [4] 0 | [5] 0 | [6] 0 | [7] 0 | [8] 0 | [9] 0 | [10] 0

OCCC#Cc1nc(-c2ccc(F)cc2)c(-c2ccncc2)n1CCCc1ccccc1 (2.5 µM)
inactive: [1] 0 | [2] 0 | [3] 0 | [4] 0 | [5] 0 | [6] 0 | [7] 0 | [8] 0 | [9] 0 | [10] 0

O=c1[nH]nc(Sc2ncc([N+](=O)[O-])s2)n1-c1ccc2c(c1)OCCO2 (2.5 µM)
inactive: [1] 0 | [2] 0 | [3] 0 | [4] 0 | [5] 0 | [6] 0 | [7] 0 | [8] 0 | [9] 0 | [10] 0

COc1ccc(F)cc1C(=O)NCc1ccc(-c2nn([C@@H](C)C(F)(F)F)c(N)c2C(N)=O)cc1 [Pirtobrutinib] (10 µM)
inactive: [1] 0 | [2] 0 | [3] 0 | [4] 0 | [5] 0 | [6] 0 | [7] 0 | [8] 0 | [9] 0 | [10] 0

C[C@@H](Nc1cc(F)cc(F)c1)c1cc(C(=O)N(C)C)cc2c(=O)cc(N3CCOCC3)oc12 (10 µM)
inactive: [1] 0 | [2] 0 | [3] 0 | [4] 0 | [5] 0 | [6] 0 | [7] 0 | [8] 0 | [9] 0 | [10] 0

CNCCOc1ccccc1C(C)(C)Nc1nccn(-c2cc(C(=O)NC3CC3)ccc2C)c1=O [p38α inhibitor 2] (10 µM)
inactive: [1] 0 | [2] 0 | [3] 0 | [4] 0 | [5] 0 | [6] 0 | [7] 0 | [8] 0 | [9] 0 | [10] 0

CNC(=O)c1ccc(-c2cnc3ncc(Cc4ccc5ncccc5c4)n3n2)cc1F [Capmatinib] (10 µM)
inactive: [1] 0 | [2] 0 | [3] 0 | [4] 0 | [5] 0 | [6] 0 | [7] 0 | [8] 0 | [9] 0 | [10] 0

CCOc1cc(C(=O)N2CCC(N3CCN(C)CC3)CC2)ccc1Nc1ncc2c(n1)N(S(C)(=O)=O)c1ccccc1C(=O)N2C (10 µM)
inactive: [1] 0 | [2] 0 | [3] 0 | [4] 0 | [5] 0 | [6] 0 | [7] 0 | [8] 0 | [9] 0 | [10] 0

CC[C@H](C)[C@@H]1NC(=O)[C@@H]2CCCN2C(=O)[C@@H]2CCCN2C(=O)[C@@H]2CCCN2C(=O)[C@H](CC(C)C)NC(=O)CNC(=O)CNC(=O)[C@H](Cc2ccccc2)NC1=O [Heterophyllin B] (10 µM)
inactive: [1] 0 | [2] 0 | [3] 0 | [4] 0 | [5] 0 | [6] 0 | [7] 0 | [8] 0 | [9] 0 | [10] 0

CCc1ccc(NC(=O)Nc2ccccc2)cc1 (10 µM)
inactive: [1] 0 | [2] 0 | [3] 0 | [4] 0 | [5] 0 | [6] 0 | [7] 0 | [8] 0 | [9] 0 | [10] 0

Pulled by structure from the entries so far, 2 records:
CNC(=O)c1ccc(-c2cnc3ncc(Cc4ccc5ncccc5c4)n3n2)cc1F [Capmatinib] (10 µM)
inactive: [1] 0 | [2] 0 | [3] 0 | [4] 0 | [5] 0 | [6] 0 | [7] 0 | [8] 0 | [9] 0 | [10] 0

CCc1ccc(NC(=O)Nc2ccccc2)cc1 (10 µM)
inactive: [1] 0 | [2] 0 | [3] 0 | [4] 0 | [5] 0 | [6] 0 | [7] 0 | [8] 0 | [9] 0 | [10] 0

(listing goes on)

O=c1cc(-c2ccc(O)cc2)oc2cc(O)c(O)c(O)c12 [Scutellarein] (10 µM)
active: [7] 1
inactive: [1] 0 | [2] 0 | [3] 0 | [4] 0 | [5] 0 | [6] 0 | [8] 0 | [9] 0 | [10] 0

CCOC(=O)C1=C[C@]2(CC)CCCN3CCc4c(n1c1ccccc41)[C@@H]32 [Vinpocetine] (10 µM)
inactive: [1] 0 | [2] 0 | [3] 0 | [4] 0 | [5] 0 | [6] 0 | [7] 0 | [8] 0 | [9] 0 | [10] 0

O=C(O)[C@]1(Cc2cccc(Nc3nccs3)n2)CC[C@@H](Oc2cccc(Cl)c2F)CC1 (2.5 µM)
inactive: [1] 0 | [2] 0 | [3] 0 | [4] 0 | [5] 0 | [6] 0 | [7] 0 | [8] 0 | [9] 0 | [10] 0

CC(C)Cn1cc(C#N)c2cc(Oc3ccc(NC(=O)[C@@H]4CCCN4)cc3)ccc21 (10 µM)
inactive: [1] 0 | [2] 0 | [3] 0 | [4] 0 | [5] 0 | [6] 0 | [7] 0 | [8] 0 | [9] 0 | [10] 0

Cn1c(=O)c(Oc2ccc(F)cc2F)cc2cnc(NC(CCO)CCO)nc21 [Pamapimod] (10 µM)
inactive: [1] 0 | [2] 0 | [3] 0 | [4] 0 | [5] 0 | [6] 0 | [7] 0 | [8] 0 | [9] 0 | [10] 0

COC(=O)/C=C/c1ccc(O)c(OC)c1 [Ferulic acid methyl ester] (10 µM)
inactive: [1] 0 | [2] 0 | [3] 0 | [4] 0 | [5] 0 | [6] 0 | [7] 0 | [8] 0 | [9] 0 | [10] 0
